The values that follow come from paper PMC10838158.

Results are given in words; binding and its absence hold for the method and conditions named. In cells and extracts the contact can be indirect. These calls come from enrichment with a bait or labelling near it, and not all partners need be listed.

The experiment addresses CMV MP–4M8H (cucumber mosaic virus movement protein, 4Myc-8His-tagged) (cucumber mosaic virus). The experiment is described as follows: affinity purification with mass spectrometry; purified CMV MP–4M8H (2 µg) incubated 4 h at 4 °C with dialysed Arabidopsis PECP (500 µg) in 0.14 M NaCl, 8.0 mM sodium phosphate, 2.0 mM potassium phosphate, 10 mM KCl, pH 7.4; immobilised anti-c-Myc IgG; SDS-PAGE bands analysed by LC-MS/MS; only the target purified.

B1: AtERdj2B (endogenous in Arabidopsis PECP) (protein, UniProt F4JIN3 1-661)
chain: MAESEENSVLFPIFILTMMAIPLVPYTFVKLSRAFSKKQRSIHCQCLECDRSGKYKRSISQSISSFTSCSNLTVVLLWIVMIFLIYHTKNMSRESQLFEPFGILGLEPGASDSEIKKAYRRLSIQYHPDKNPDPEANKYFVESIAKAYQALTDPLSRENFEKYGHPDGRQGYTMGIALPQFILNMNGESGGILLLCTVGLCILLPLVIASIYLWRSSKYTGNHVKLQTRQAYFELLQPSLTPSKVMDIFIRAAEYAEISVRKSDDESLQKLFMSVKSELNLDPKKLKQEEAKFWKKHPATIKTELLIQKQLTRESSVLSPTLQRDFRHVLEFAPRLLEDLIKMAVIPRNEQGRGWLRPALGVMELSQCIVQAVPLSARKSSSEDIAPFLQLPHFNESIAKSIALQVKSFQKFQELSLAERSKLLREVVSLSETDVQDIEKVLEMIPSLKINVTCKTEGEEGIQEGDIMTVQAWITLKRPNGLIGAIPHSPYFPFHKEENFWVLLADSNHVWFFQKVKFMDEAGAIAAASNTITETMEPLGASVKETNDAVKEAVEKVKSGSRLVMGRLLAPGEGTYNLTCFCLSDTWIGCDQKTSLKVEVLKRTRDVEGENAEEGLEEEDDEIEEEDYESEYSEDEEDKKRGSKKKVNKESSSEESGSDEE
As for B1, the binding result is on record as “binds”.
